Measurements published in US4631270A (priority 1985, dated 1986).
Some peptides are written in HELM: one residue between dots, names in brackets for other building blocks, links after the first $.

Test: general procedure: Boc solid-phase peptide synthesis; benzhydrylamine resin

In the case of “PEPTIDE1{[ac].P.Q.[GlyPsiLeu].A.G.L.R.[am]}$$$$V2.0”, the step yield (purification step, on 55 mg loaded) is reported as 58% and the crude yield (whole synthesis) is reported as 80%.
